For one substance, binding results are on record in PMC8281810.

Sequences of proteins named here, by UniProt entry; tags and fusion partners are left off. A change or cut given only in a name is not applied to a line headed by its entry.
UniProt Q6ZMR5: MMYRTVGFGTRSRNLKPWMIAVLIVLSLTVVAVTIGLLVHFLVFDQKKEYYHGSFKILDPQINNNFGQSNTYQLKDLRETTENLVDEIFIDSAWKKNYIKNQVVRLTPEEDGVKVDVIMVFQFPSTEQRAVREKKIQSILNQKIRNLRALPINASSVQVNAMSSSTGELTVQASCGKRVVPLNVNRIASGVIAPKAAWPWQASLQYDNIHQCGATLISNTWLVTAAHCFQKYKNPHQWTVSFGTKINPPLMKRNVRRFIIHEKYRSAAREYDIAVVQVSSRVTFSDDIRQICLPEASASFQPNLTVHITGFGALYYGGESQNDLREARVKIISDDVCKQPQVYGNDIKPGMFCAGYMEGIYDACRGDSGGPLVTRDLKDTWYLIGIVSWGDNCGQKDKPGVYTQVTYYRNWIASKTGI
UniProt P05556: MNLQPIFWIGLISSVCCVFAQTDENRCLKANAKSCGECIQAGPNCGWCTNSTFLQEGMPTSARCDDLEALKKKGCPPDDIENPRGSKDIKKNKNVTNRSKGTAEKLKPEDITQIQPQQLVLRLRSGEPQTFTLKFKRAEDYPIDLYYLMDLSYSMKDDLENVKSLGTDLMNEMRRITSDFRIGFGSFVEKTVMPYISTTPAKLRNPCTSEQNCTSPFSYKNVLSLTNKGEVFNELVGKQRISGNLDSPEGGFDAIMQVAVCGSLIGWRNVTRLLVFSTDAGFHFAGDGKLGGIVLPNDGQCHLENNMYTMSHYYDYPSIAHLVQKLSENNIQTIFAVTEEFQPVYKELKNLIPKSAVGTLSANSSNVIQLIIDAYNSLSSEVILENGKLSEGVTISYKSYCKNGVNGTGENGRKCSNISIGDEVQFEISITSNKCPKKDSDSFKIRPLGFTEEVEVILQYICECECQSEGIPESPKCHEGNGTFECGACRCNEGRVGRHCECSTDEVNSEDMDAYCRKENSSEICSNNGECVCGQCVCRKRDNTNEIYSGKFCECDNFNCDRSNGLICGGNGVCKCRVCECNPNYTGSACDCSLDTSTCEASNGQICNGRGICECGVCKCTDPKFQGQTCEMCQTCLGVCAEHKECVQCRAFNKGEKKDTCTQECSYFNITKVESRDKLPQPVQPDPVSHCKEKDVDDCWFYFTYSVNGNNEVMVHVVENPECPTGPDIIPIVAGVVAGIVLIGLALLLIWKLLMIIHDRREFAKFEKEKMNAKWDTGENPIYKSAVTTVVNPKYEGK

For this assay, the target named is Transmembrane Serine protease 11A (TMPRSS11a) (UniProt Q6ZMR5). Kind of assay: affinity purification with mass spectrometry; affinity chromatography of TMPRSS11a-associated endogenous proteins, MS-based proteomics; no conditions given.

These are yes or no findings as the source states them, for the method shown. Binding seen in cells or lysates may run through a third protein. These calls come from enrichment with a bait or labelling near it, and not all partners need be listed.

On to “Integrin beta-1 protein (from UniProt P05556 21-798) (receptor)”, for which the binding entry is given as “binds”.
